The values that follow come from the supplement of paper PMC11732987, “Enantioselective OTUD7B fragment discovery through chemoproteomics screening and high-throughput optimisation” (Communications Chemistry, 2025).

Some of the results follow. The data scatter; read single values as rough.

For one experiment, the target named is ATP1A1 C374 (UniProt P05023). Description: log2 mean competition ratio of IA-DTB cysteine labelling (DMSO/compound) (log2 ratio); higher = stronger cysteine engagement by compound. Conditions: 50 µM; treatment time: 4 h; cell line lysate: HEK293T. As for the experimental part:
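IA-DTB competitive cysteine chemoproteomics in HEK293T RIPA lysate. Lysates were treated with compound 29 or 30 at 50 or 200 µM for 4 h, then IA-DTB (500 µM, 1 h), trypsin-digested, NeutrAvidin-enriched and analysed by diaPASEF. Competition ratio = intensity DMSO / intensity compound (n=4 treated, n=64 DMSO); binding: mean log2 CR ≥ 1 and p ≤ 0.05 plus QC filters. Target is the cysteine site.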
In the case of `O=C(CCl)N[C@@H]1CCCc2ccccc21`, the “log2 mean competition ratio” value is -0.181.
As to `O=C(CCl)N[C@H]1CCCc2ccccc21`, the “log2 mean competition ratio” value was -0.106.

The experiment is the same for the next values; noted with them: 200 µM; treatment time: 4 h; cell line lysate: HEK293T.
With `O=C(CCl)N[C@@H]1CCCc2ccccc21`, the “log2 mean competition ratio” value is -0.231.
`O=C(CCl)N[C@H]1CCCc2ccccc21`: the “log2 mean competition ratio” value was -0.121.
